Laboratory results from article doi:10.1101/2025.10.13.682235.
Results are given in words; binding and its absence hold for the method and conditions named. In cells and extracts the contact can be indirect. A yes stands for co-enrichment or nearness to the bait. Other partners may have been found.

Sequences of proteins named here, by UniProt entry; tags and fusion partners are left off.
UniProt P10826: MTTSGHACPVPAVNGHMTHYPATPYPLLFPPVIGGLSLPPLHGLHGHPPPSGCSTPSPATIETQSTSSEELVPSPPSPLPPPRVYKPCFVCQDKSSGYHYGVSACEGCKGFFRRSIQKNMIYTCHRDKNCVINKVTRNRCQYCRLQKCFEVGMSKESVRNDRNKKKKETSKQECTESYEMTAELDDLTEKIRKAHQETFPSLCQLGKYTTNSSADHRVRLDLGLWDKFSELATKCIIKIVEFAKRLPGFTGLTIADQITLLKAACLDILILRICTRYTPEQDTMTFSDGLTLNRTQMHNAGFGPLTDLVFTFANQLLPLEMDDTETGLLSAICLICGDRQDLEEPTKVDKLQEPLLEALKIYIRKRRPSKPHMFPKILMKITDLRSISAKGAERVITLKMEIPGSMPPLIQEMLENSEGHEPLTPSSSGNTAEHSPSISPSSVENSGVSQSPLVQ
UniProt P10276: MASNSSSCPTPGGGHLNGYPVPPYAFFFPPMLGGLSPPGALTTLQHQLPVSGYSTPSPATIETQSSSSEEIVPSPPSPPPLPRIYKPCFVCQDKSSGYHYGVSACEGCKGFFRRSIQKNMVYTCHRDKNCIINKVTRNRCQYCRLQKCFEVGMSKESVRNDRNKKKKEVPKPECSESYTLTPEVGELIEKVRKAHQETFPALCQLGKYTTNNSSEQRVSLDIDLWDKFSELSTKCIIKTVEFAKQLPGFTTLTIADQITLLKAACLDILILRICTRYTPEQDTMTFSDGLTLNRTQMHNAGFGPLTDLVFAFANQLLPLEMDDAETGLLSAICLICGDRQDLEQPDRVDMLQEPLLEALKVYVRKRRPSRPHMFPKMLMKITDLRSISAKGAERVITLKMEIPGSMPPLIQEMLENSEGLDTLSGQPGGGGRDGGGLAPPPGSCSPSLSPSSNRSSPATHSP
UniProt Q09472: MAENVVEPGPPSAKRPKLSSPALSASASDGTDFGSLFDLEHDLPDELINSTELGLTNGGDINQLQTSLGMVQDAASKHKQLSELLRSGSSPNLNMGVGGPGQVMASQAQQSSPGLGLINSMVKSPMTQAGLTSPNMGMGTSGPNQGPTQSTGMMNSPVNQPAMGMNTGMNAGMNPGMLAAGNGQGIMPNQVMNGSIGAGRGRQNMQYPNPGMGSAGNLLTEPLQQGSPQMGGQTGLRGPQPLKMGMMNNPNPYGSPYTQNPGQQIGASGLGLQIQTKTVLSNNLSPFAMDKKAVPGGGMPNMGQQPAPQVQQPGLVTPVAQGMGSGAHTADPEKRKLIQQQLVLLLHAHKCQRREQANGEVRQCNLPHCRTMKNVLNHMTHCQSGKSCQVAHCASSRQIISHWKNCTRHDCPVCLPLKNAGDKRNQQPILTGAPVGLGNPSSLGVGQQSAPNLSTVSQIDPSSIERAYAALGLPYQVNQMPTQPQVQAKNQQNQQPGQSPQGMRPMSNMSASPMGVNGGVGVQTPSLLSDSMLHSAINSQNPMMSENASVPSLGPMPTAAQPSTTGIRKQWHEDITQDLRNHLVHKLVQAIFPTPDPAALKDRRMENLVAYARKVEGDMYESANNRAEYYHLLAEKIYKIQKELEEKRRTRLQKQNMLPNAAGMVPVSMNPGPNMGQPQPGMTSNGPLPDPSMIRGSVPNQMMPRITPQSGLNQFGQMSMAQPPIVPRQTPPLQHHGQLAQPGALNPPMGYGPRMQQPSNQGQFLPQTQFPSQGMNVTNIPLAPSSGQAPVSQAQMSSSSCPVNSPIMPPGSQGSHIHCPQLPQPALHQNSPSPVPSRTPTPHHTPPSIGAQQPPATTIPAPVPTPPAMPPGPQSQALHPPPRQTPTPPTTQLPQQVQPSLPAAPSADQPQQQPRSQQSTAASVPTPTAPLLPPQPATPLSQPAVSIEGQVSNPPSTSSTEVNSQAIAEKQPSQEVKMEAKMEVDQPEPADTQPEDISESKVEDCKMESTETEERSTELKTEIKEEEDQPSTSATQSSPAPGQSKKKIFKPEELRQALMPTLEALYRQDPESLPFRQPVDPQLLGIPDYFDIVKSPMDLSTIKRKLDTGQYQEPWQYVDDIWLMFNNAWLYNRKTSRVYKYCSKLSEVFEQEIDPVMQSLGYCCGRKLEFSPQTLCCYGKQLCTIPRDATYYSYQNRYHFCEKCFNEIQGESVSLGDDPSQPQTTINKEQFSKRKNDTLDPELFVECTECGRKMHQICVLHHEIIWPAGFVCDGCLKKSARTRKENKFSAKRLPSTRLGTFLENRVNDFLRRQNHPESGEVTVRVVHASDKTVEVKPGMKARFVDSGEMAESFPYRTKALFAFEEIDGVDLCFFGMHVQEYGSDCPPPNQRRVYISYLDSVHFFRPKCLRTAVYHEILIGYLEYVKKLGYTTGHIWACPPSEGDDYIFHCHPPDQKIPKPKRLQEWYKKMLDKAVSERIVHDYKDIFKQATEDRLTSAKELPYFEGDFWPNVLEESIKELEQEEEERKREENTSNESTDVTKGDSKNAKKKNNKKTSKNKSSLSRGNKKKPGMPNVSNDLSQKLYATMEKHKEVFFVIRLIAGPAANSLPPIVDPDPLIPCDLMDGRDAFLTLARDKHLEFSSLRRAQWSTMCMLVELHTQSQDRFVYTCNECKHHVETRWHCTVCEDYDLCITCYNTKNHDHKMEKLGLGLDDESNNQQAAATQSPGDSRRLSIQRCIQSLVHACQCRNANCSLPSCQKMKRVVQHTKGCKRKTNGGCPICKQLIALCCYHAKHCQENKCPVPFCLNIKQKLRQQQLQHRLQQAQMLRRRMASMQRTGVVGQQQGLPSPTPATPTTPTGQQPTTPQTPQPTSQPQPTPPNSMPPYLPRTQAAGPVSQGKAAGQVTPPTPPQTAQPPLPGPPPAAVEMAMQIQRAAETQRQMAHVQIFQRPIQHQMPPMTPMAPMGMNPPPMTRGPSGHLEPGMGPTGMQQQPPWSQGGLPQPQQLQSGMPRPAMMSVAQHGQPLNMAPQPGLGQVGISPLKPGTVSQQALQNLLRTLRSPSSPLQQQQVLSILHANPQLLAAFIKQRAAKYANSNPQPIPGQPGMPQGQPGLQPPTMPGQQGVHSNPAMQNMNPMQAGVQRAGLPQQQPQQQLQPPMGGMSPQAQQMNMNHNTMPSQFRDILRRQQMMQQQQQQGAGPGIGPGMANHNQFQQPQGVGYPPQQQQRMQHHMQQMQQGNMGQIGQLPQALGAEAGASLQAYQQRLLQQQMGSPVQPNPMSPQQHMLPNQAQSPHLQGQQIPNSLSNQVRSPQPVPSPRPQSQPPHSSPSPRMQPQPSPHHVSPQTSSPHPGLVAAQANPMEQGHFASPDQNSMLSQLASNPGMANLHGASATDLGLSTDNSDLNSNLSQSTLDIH
UniProt P28702: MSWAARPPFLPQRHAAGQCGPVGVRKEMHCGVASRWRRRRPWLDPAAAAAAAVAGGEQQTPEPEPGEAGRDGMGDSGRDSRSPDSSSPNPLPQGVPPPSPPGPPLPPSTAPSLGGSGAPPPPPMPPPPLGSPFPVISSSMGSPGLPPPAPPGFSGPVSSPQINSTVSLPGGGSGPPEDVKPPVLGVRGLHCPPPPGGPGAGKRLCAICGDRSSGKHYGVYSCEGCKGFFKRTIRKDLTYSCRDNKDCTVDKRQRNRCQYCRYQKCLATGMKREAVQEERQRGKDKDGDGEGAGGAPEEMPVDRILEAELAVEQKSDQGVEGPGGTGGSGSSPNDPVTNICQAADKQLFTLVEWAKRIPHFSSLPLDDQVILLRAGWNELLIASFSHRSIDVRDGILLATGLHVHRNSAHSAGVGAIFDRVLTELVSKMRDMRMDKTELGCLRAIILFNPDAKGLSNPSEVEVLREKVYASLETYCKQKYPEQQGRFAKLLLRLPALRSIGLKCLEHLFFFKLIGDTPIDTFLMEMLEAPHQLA
UniProt Q15596: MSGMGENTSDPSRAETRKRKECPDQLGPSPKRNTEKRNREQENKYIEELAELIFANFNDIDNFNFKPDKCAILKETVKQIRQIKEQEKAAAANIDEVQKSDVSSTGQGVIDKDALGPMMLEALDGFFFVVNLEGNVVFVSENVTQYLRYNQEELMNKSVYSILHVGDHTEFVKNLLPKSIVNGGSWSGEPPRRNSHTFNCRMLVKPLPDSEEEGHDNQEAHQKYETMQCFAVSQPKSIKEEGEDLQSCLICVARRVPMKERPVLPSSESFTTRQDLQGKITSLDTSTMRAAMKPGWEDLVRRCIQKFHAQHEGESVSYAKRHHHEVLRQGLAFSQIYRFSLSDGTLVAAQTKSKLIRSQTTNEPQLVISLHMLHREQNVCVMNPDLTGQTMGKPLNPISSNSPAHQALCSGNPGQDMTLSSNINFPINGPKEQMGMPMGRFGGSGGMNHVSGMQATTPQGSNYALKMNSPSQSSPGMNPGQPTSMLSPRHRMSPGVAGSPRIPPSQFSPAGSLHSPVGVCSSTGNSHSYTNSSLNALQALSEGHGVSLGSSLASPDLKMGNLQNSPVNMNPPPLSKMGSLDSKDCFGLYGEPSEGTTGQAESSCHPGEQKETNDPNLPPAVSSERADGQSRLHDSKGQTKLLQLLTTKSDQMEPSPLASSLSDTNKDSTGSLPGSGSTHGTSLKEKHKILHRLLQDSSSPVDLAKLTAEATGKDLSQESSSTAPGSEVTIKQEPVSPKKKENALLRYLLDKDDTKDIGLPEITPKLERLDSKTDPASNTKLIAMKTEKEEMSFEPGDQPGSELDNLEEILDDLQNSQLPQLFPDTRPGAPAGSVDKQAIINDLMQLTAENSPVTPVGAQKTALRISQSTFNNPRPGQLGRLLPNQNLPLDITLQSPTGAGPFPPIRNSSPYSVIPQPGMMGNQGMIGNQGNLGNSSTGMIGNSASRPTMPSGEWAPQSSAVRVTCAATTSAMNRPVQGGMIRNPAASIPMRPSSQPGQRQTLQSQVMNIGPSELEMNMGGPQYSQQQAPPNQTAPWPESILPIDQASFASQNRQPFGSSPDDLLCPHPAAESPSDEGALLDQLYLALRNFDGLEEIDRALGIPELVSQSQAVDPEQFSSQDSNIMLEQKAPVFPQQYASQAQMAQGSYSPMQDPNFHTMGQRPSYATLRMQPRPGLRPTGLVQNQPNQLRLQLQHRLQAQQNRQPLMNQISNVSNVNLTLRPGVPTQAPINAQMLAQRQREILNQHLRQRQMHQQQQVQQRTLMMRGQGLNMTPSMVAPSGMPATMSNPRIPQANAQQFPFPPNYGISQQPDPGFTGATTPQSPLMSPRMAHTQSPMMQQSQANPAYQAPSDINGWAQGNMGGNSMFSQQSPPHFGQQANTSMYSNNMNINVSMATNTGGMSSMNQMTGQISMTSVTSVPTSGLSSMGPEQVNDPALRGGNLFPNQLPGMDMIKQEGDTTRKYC
UniProt Q92769: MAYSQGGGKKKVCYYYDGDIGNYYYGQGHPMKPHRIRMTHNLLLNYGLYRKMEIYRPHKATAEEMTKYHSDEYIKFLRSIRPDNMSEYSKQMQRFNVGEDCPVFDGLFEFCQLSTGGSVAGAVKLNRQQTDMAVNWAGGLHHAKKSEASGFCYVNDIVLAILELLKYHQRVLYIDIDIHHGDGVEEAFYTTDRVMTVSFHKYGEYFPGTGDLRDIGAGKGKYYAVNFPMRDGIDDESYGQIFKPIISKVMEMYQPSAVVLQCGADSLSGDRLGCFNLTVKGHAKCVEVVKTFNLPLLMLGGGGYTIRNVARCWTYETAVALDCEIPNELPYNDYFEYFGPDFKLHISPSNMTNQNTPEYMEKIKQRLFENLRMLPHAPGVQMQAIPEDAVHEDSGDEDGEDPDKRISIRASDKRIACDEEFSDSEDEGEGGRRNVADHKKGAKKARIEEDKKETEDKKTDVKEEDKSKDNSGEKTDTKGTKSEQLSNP

Legend:
[1] = target: Flag-tagged retinoic acid receptor beta (Flag-RARβ) (UniProt P10826); assay: affinity purification with mass spectrometry; Flag-RARα, Flag-RARβ or Flag-mock purified from extracts of stable HEK293T cells on anti-FLAG M2 affinity gel (overnight, 4 °C), washes with BC500 (0.5 M KCl) and BC150, elution with FLAG peptide; eluates analysed by LC-MS/MS against mock, n=2
[2] = target: Flag-tagged retinoic acid receptor alpha (Flag-RARα) (UniProt P10276); assay: as above

Row | binding [1] | binding [2] | Substance
1 | binds | binds | Transcriptional coactivator P300, endogenous in HEK293T (from UniProt Q09472 1-2414) (enzyme)
2 | binds | binds | RXRβ, endogenous in HEK293T (from UniProt P28702 1-533) (receptor)
3 | binds | – | NCOA3, endogenous in HEK293T (from UniProt Q9Y6Q9 1-1424)
4 | binds | – | NCOA2, endogenous in HEK293T (from UniProt Q15596 1-1464)
5 | binds | binds | Histone deacetylase HDAC2, endogenous in HEK293T (from UniProt Q92769 1-488) (enzyme)
